From paper PMC9361535
These are yes or no findings as the source states them, for the method shown. Binding seen in cells or lysates may run through a third protein. A yes stands for co-enrichment or nearness to the bait. Other partners may have been found.

The chains behind the UniProt entries cited, without tags or fusion partners.
UniProt O95816: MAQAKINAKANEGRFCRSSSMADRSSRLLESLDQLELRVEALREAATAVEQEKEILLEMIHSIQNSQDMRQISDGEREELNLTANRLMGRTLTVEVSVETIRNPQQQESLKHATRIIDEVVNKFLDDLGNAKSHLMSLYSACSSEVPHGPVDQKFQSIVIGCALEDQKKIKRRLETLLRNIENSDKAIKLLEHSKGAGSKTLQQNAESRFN
UniProt P25685: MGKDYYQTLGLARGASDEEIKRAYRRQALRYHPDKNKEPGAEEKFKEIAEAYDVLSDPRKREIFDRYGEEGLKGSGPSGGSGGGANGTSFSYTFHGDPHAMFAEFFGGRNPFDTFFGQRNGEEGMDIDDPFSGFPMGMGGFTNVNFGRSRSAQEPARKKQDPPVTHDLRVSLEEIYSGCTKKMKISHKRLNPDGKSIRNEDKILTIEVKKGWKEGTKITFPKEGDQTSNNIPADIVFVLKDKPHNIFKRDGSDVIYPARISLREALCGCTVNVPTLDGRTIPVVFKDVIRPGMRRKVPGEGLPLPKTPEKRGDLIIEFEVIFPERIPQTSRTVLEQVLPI
UniProt P11142: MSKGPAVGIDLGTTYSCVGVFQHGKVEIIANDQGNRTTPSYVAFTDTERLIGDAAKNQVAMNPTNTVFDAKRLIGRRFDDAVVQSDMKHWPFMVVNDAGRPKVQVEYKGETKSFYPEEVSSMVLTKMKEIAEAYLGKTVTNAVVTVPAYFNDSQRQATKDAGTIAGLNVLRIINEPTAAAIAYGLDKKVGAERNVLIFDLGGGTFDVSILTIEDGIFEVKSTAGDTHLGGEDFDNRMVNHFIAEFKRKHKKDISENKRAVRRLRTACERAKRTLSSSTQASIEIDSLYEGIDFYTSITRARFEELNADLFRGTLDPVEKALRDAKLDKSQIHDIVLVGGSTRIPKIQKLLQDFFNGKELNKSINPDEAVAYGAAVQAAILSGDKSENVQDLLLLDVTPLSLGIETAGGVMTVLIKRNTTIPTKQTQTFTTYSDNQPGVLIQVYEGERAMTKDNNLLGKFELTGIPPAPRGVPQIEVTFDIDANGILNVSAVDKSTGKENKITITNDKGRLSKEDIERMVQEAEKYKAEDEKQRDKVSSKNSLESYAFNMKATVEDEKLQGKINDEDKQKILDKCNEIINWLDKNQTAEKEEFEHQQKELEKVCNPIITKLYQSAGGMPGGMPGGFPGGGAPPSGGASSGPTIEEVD
UniProt Q03164: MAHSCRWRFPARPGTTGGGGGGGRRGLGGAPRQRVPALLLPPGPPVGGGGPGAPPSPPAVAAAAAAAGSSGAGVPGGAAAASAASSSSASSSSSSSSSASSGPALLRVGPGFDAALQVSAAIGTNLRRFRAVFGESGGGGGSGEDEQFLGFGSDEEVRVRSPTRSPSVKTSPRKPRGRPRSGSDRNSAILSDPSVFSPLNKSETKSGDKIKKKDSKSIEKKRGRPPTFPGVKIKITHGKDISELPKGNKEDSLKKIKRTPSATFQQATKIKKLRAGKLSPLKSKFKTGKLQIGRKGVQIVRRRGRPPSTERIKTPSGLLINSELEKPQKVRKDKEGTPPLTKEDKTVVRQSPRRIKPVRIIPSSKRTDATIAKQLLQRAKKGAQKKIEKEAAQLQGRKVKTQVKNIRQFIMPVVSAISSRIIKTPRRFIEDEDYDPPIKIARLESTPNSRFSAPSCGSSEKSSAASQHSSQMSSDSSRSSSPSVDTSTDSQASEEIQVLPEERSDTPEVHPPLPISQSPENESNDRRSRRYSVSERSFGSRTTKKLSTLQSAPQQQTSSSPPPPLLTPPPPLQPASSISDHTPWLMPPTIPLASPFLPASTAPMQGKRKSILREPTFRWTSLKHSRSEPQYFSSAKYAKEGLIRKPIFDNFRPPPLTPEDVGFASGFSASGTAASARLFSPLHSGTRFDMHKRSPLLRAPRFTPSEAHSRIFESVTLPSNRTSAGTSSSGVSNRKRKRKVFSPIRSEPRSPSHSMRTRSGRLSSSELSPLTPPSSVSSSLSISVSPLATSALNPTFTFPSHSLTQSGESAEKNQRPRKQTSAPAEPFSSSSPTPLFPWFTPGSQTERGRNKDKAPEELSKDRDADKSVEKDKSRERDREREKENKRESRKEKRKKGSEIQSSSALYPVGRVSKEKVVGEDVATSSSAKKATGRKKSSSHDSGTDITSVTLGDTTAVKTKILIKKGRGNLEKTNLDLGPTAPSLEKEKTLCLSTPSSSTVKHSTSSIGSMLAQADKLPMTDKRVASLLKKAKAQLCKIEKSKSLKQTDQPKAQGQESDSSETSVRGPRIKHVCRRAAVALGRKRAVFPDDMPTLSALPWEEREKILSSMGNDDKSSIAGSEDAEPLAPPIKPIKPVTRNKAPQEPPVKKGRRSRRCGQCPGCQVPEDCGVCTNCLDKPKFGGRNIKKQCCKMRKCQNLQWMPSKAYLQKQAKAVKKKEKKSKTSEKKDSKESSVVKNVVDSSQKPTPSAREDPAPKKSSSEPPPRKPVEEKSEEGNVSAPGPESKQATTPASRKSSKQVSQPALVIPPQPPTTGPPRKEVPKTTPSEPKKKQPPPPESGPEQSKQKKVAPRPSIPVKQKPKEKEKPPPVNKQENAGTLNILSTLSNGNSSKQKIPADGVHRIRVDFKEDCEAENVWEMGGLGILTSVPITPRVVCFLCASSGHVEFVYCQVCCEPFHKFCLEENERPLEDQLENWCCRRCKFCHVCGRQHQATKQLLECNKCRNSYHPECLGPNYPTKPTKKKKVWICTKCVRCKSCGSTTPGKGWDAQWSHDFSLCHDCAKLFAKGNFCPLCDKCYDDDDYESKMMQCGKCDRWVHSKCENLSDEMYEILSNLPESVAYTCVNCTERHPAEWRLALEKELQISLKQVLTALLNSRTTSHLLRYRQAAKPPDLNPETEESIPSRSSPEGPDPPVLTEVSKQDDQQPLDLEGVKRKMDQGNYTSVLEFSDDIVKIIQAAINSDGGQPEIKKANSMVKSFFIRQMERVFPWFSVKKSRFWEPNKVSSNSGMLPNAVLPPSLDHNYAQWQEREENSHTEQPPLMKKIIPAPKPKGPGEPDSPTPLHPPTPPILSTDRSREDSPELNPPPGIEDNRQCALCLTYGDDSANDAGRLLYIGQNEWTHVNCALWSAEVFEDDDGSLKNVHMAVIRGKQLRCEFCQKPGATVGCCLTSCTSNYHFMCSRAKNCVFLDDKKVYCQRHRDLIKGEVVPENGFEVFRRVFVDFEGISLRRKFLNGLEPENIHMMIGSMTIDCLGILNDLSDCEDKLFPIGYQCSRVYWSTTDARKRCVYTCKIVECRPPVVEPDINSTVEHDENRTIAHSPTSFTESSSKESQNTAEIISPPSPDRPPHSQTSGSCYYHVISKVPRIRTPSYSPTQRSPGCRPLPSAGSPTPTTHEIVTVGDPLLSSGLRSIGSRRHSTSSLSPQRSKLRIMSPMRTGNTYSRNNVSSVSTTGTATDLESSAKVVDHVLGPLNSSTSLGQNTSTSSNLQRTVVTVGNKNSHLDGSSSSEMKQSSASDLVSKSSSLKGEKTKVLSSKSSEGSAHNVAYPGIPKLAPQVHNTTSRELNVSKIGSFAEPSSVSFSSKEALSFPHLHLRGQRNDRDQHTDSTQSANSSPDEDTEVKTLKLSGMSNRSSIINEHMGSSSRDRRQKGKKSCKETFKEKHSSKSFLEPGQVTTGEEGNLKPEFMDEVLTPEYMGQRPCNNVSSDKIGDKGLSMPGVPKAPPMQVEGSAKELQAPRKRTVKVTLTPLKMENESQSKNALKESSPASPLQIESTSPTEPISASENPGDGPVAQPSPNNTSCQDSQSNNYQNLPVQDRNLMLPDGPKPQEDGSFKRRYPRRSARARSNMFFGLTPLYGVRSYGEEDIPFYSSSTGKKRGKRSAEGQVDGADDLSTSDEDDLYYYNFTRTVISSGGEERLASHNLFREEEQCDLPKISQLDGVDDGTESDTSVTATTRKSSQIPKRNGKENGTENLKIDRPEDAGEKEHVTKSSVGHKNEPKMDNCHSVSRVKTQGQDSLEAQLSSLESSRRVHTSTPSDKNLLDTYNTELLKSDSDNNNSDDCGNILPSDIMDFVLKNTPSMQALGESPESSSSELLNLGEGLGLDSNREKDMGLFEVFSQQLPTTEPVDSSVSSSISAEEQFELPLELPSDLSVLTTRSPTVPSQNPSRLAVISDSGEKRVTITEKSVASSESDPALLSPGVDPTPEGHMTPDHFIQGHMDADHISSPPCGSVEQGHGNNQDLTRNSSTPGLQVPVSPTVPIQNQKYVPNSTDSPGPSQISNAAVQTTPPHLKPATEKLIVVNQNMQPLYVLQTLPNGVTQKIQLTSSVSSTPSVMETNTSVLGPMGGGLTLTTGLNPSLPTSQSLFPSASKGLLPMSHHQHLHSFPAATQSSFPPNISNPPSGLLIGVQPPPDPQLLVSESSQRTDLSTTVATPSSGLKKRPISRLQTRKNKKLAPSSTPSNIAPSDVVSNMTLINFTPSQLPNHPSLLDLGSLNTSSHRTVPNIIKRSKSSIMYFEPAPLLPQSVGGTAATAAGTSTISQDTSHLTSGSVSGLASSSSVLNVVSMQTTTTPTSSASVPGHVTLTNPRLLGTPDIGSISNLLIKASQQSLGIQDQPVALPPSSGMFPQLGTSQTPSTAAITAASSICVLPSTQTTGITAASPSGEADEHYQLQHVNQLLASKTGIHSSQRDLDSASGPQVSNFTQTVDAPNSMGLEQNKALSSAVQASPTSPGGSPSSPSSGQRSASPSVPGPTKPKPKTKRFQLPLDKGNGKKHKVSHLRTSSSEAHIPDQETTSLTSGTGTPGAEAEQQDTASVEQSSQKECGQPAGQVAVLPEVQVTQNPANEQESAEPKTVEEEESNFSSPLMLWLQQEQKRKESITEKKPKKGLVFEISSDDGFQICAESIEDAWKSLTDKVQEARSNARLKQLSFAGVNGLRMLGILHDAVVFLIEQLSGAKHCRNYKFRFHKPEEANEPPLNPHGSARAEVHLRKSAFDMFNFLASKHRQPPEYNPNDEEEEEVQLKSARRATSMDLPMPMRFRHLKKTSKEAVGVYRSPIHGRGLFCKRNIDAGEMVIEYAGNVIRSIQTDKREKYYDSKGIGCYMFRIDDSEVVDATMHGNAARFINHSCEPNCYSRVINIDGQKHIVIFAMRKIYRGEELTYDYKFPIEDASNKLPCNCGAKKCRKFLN
UniProt P54725: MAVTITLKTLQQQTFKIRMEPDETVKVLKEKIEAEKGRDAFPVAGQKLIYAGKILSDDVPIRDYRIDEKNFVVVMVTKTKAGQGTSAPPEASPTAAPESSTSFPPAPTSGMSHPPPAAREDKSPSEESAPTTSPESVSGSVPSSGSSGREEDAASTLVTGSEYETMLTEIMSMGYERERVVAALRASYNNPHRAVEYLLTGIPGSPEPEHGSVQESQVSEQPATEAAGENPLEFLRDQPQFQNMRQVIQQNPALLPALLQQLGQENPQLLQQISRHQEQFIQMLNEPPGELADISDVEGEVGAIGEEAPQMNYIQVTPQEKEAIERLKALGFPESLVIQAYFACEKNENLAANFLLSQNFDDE
UniProt P54727: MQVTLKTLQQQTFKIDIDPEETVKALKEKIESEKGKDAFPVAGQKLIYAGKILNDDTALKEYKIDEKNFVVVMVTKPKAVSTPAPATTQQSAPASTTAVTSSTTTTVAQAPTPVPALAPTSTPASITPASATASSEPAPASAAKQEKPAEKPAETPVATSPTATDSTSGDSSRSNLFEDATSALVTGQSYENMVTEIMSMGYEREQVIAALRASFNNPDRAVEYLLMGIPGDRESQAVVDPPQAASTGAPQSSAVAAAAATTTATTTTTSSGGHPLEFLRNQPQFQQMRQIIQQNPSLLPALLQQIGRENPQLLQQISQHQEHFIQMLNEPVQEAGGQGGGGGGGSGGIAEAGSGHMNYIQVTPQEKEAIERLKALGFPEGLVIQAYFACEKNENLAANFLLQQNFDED

Columns and labels:
menin E366D-GFP (human) [1] = molecular target: menin E366D-GFP (human) (UniProt O00255); assay: affinity purification with mass spectrometry; GFP-Trap agarose beads against control agarose beads; 3 mg cytoplasmic extract of HeLa cells induced with doxycycline for 24 h; binding buffer 20 mM Hepes-KOH pH 7.9, 300 mM NaCl, 20% glycerol, 0.1% NP-40; 4 °C, 1 h; triplicates; label-free LFQ and iBAQ, FDR 0.01, s0 2
menin Q141R-GFP (human) [2] = molecular target: menin Q141R-GFP (human) (UniProt O00255); assay: as above
menin E255K-GFP (human) = menin E255K-GFP (human) (UniProt O00255); assay: as above
menin L264P-GFP (human) = menin L264P-GFP (human) (UniProt O00255); assay: as above
menin R52G-GFP (human) = menin R52G-GFP (human) (UniProt O00255); assay: as above
menin L168P-GFP (human) = menin L168P-GFP (human) (UniProt O00255); assay: as above
menin E359K-GFP (human) = menin E359K-GFP (human) (UniProt O00255); assay: as above
menin E408Q-GFP (human) [3] = molecular target: menin E408Q-GFP (human) (UniProt O00255); assay: as above
WT menin-GFP (human) [4] = molecular target: WT menin-GFP (human) (UniProt O00255); assay: as above
menin E366D-GFP (human) [5] = molecular target: menin E366D-GFP (human) (UniProt O00255); assay: affinity purification with mass spectrometry; GFP-Trap agarose beads against control agarose beads; 1 mg nuclear extract of HeLa cells induced with doxycycline for 24 h; binding buffer 20 mM Hepes-KOH pH 7.9, 300 mM NaCl, 20% glycerol, 0.1% NP-40; 4 °C, 1 h; triplicates; label-free LFQ and iBAQ, FDR 0.01, s0 2
menin Q141R-GFP (human) [6] = molecular target: menin Q141R-GFP (human) (UniProt O00255); assay: as above
menin E408Q-GFP (human) [7] = molecular target: menin E408Q-GFP (human) (UniProt O00255); assay: as above
WT menin-GFP (human) [8] = molecular target: WT menin-GFP (human) (UniProt O00255); assay: as above
menin R322H-GFP (human) = assay: as above

binding (menin E366D-GFP (human) [1])	binding (menin Q141R-GFP (human) [2])	binding (menin E255K-GFP (human))	binding (menin L264P-GFP (human))	binding (menin R52G-GFP (human))	binding (menin L168P-GFP (human))	binding (menin E359K-GFP (human))	binding (menin E408Q-GFP (human) [3])	binding (WT menin-GFP (human) [4])	binding (menin E366D-GFP (human) [5])	binding (menin Q141R-GFP (human) [6])	binding (menin E408Q-GFP (human) [7])	binding (WT menin-GFP (human) [8])	binding (menin R322H-GFP (human))	Molecule
binds	binds	binds	binds	binds	binds	binds	binds	binds	–	–	–	–	–	BAG2 (from UniProt O95816 1-211)
binds	binds	binds	binds	binds	binds	binds	binds	binds	–	–	–	–	–	DNAJB1 (from UniProt P25685 1-340)
binds	binds	binds	binds	binds	binds	binds	binds	binds	–	–	–	–	–	HSPA8 (from UniProt P11142 1-646)
–	–	–	–	–	–	–	–	–	binds	binds	binds	binds	–	KMT2A (from UniProt Q03164 1-3969)
–	–	–	–	–	–	–	–	–	binds	binds	binds	binds	–	KMT2B (from UniProt Q9UMN6 1-2715)
binds	binds	binds	binds	binds	binds	binds	binds	binds	–	–	–	–	–	RAD23A (from UniProt P54725 1-363)
binds	binds	binds	binds	binds	binds	binds	binds	binds	–	–	–	–	–	RAD23B (from UniProt P54727 1-409)
binds	binds	binds	binds	binds	binds	binds	binds	binds	–	–	–	–	–	VCP (from UniProt P55072 1-806)
–	–	–	–	–	–	–	–	–	binds	–	binds	binds	binds	HCFC2 (protein, UniProt Q9Y5Z7 1-792) MAAPSLLNWRRVSSFTGPVPRARHGHRAVAIRELMIIFGGGNEGIADELHVYNTATNQWFLPAVRGDIPPGCAAHGFVCDGTRILVFGGMVEYGRYSNELYELQASRWLWKKVKPHPPPSGLPPCPRLGHSFSLYGNKCYLFGGLANESEDSNNNVPRYLNDFYELELQHGSGVVGWSIPVTKGVVPSPRESHTAVIYCKKDSGSPKMYVFGGMCGARLDDLWQLDLETMSWSKPETKGTVPLPRSLHTASVIGNKMYIFGGWVPHKGENTETSPHDCEWRCTSSFSYLNLDTTEWTTLVSDSQEDKKNSRPRPRAGHCAVAIGTRLYFWSGRDGYKKALNSQVCCKDLWYLDTEKPPAPSQVQLIKATTNSFHVKWDEVSTVEGYLLQLSTDLPYQAASSDSSAAPNMQGVRMDPHRQGSNNIVPNSINDTINSTKTEQPATKETSMKNKPDFKALTDSNAILYPSLASNASNHNSHVVDMLRKNEGPHTSANVGVLSSCLDVRTVIPETSVSSTVSSTQTMVTQQTIKTESSSTNGAVVKDETSLTTFSTKSEVDETYALPATKISRVETHATATPFSKETPSNPVATVKAGERQWCDVGIFKNNTALVSQFYLLPKGKQSISKVGNADVPDYSLLKKQDLVPGTGYRFRVAAINGCGIGPFSKISEFKTCIPGFPGAPSAVRISKNVEGIHLSWEPPTSPSGNILEYSAYLAIRTAQIQDNPSQLVFMRIYCGLKTSCIVTAGQLANAHIDYTSRPAIVFRISAKNEKGYGPATQVRWLQGNNKKAPLN
–	–	–	–	–	–	–	–	–	binds	–	binds	binds	binds	ATF7 (protein, UniProt P17544 1-483) MGDDRPFVCNAPGCGQRFTNEDHLAVHKHKHEMTLKFGPARTDSVIIADQTPTPTRFLKNCEEVGLFNELASSFEHEFKKAADEDEKKAAAGPLDMSLPSTPDIKIKEEEPVEVDSSPPDSPASSPCSPPLKEKEVTPKPVLISTPTPTIVRPGSLPLHLGYDPLHPTLPSPTSVITQAPPSNRQMGSPTGSLPLVMHLANGQTMPVLPGPPVQMPSVISLARPVSMVPNIPGIPGPPVNSSGSISPSGHPIPSEAKMRLKATLTHQVSSINGGCGMVVGTASTMVTARPEQSQILIQHPDAPSPAQPQVSPAQPTPSTGGRRRRTVDEDPDERRQRFLERNRAAASRCRQKRKLWVSSLEKKAEELTSQNIQLSNEVTLLRNEVAQLKQLLLAHKDCPVTALQKKTQGYLESPKESSEPTGSPAPVIQHSSATAPSNGLSVRSAAEAVATSVLTQMASQRTELSMPIQSHVIMTPQSQSAGR
